From paper PMC6120632
Results are given in words; binding and its absence hold for the method and conditions named. Some binding calls cover weakened binding; strength is not graded here. One block for each molecule: values may come before it.

Amino acid sequences for entries named in this document (tags omitted). Residues count along the entry.
UniProt P41273: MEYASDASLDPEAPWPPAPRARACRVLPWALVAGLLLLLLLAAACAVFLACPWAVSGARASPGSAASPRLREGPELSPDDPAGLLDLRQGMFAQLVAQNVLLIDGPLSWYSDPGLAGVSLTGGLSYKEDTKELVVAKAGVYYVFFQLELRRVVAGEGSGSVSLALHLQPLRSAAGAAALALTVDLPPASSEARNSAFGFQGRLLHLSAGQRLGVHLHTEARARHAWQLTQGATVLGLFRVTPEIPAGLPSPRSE
UniProt P52799, residues 28-333: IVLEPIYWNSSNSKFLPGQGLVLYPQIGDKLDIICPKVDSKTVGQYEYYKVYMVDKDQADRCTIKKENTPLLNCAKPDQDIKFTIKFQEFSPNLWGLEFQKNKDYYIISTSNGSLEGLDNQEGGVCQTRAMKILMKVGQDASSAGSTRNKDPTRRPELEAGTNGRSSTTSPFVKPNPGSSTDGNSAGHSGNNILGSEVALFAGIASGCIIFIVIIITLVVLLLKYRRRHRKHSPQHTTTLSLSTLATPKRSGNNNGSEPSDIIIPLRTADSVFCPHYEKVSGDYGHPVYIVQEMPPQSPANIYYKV
UniProt Q07011, residues 24-186: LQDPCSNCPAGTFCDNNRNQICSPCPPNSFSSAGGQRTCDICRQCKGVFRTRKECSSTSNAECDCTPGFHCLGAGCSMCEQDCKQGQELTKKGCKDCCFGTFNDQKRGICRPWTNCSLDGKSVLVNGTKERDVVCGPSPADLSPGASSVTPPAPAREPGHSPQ

Key:
Assay in all cases: flow cytometry on cells; genome-scale CRISPR knockout library of Cas9-expressing cells (HEK293; NCI-SNU-1 for TNFRSF9) stained with oligomeric recombinant probe; cells that had lost binding sorted, gRNA enrichment by sequencing (MAGeCK)
[1] = molecular target: TNFSF9 (human (endogenous in NCI-SNU-1)) (UniProt P41273)
[2] = molecular target: EFNB2 (human (endogenous in HEK293)) (UniProt P52799)
[3] = molecular target: T1, CADM1 (human (endogenous in HEK293)) (UniProt Q9BY67)
T1 sequence: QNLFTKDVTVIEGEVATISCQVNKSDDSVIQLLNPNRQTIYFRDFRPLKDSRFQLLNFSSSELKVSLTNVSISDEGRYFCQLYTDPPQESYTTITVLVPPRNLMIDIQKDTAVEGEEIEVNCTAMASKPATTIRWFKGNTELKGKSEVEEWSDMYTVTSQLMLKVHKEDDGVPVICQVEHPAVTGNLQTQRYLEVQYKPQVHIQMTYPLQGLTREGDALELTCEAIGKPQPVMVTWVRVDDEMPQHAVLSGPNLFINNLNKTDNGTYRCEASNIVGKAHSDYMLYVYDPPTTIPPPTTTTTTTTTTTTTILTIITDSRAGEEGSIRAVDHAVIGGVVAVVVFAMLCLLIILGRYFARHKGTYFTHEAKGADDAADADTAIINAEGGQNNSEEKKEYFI

binding [1]: binds
Molecule: TNFRSF9 (from UniProt Q07011 24-186) (receptor)

binding [2]: binds
B1: EPHB1 (receptor, UniProt P54762 18-540)
chain: MEETLMDTRTATAELGWTANPASGWEEVSGYDENLNTIRTYQVCNVFEPNQNNWLLTTFINRRGAHRIYTEMRFTVRDCSSLPNVPGSCKETFNLYYYETDSVIATKKSAFWSEAPYLKVDTIAADESFSQVDFGGRLMKVNTEVRSFGPLTRNGFYLAFQDYGACMSLLSVRVFFKKCPSIVQNFAVFPETMTGAESTSLVIARGTCIPNAEEVDVPIKLYCNGDGEWMVPIGRCTCKPGYEPENSVACKACPAGTFKASQEAEGCSHCPSNSRSPAEASPICTCRTGYYRADFDPPEVACTSVPSGPRNVISIVNETSIILEWHPPRETGGRDDVTYNIICKKCRADRRSCSRCDDNVEFVPRQLGLTECRVSISSLWAHTPYTFDIQAINGVSSKSPFPPQHVSVNITTNQAAPSTVPIMHQVSATMRSITLSWPQPEQPNGIILDYEIRYYEKEHNEFNSSMARSQTNTARIDGLRPGMVYVVQVRARTVAGYGKFSGKMCFQTLTDDDYKSELREQLP

binding [3]: binds
B2: CRTAM (receptor, UniProt O95727 18-287)
chain: SLTNHTETITVEEGQTLTLKCVTSLRKNSSLQWLTPSGFTIFLNEYPALKNSKYQLLHHSANQLSITVPNVTLQDEGVYKCLHYSDSVSTKEVKVIVLATPFKPILEASVIRKQNGEEHVVLMCSTMRSKPPPQITWLLGNSMEVSGGTLHEFETDGKKCNTTSTLIIHTYGKNSTVDCIIRHRGLQGRKLVAPFRFEDLVTDEETASDALERNSLSSQDPQQPTSTVSVTEDSSTSEIDKEEKEQTTQDPDLTTEANPQYLGLARKKSG
